Source: patent US20160347802A1
No constants are given. Whether binding was seen depends on the method and setting. For some of these results: Tags and fused reporters may be left off the sequences shown. One block for each binder: values may come before it.

Experiments:
EphB4a, AVEXIS protein = test: AVEXIS competition: EphB4a bait, EphrinB2a prey, Draxin232-252aa-hFC as inhibitor
Cntn1a, AVEXIS protein = test: AVEXIS competition: Cntn1a bait, Ptprz1b prey, Draxin232-252aa-hFC as inhibitor
[1] = target: Vasn (Slit-like2), AVEXIS protein; test: AVEXIS competition: Vasn bait, Islr2 prey, Draxin232-252aa-hFC as inhibitor
RGMc, AVEXIS protein = test: AVEXIS competition: RGMc bait, Neo1 prey, purified Draxin as inhibitor
[2] = target: zebrafish Dcc extracellular domain, AVEXIS prey protein (zebrafish); test: AVEXIS
[3] = target: zebrafish Unc5b extracellular domain, AVEXIS prey protein (zebrafish); test: AVEXIS
[4] = target: zebrafish Neo1 extracellular domain, AVEXIS prey protein (zebrafish); test: AVEXIS

Binder: EVMPTLDMTLFDWTDYEDMKP (Fc fusion, not shown: a dimerising Fc or GST) [Draxinaa232-252-hFc]
binding (EphB4a, AVEXIS protein): no binding (tested: dilution 1, no concentration printed)
binding (Cntn1a, AVEXIS protein): no binding (tested: dilution 1, no concentration printed)
binding [1]: no binding (tested: dilution 1, no concentration printed)

binding (RGMc, AVEXIS protein): no binding (tested: 10000 nM)
B1: purified His-tagged full-length zebrafish Draxin protein (Draxin-CD4d3+4-6XHis) (ligand, not shown: small tags and cut ends)
chain: SEISSDNFKQSLTPSTTTSKEHPETGLTGGRQQKRHWSGKERDSAGLFSQRHMDRLEDDGTSMEGLSPVRLEMGPGDTMKAEVHGEVRASAQMRQGSHPAEGELNRKGRRHSHRLLAEHRKHGGKKDKGRGKGDLSDPEPELDSLLKDLNAFEDGLNTSPPNYNSVPLNEVPSPLSPILVTTAIKGHPPTLPPASTKPQKSSQGRTQGEVMPTLDMTLFDWTDYEDMKPADSWPSNKRKDKRRSKNKSNGNTTTEAGIVEPCDHHLDCLSGSCCDLREFECKPHNRGLNNKCFDDCMCEEGLRCYAKFHRKRRVTRRRGRCVDPESVNSNQGAFITV

binding [2]: no binding
binding [3]: no binding
binding [4]: no binding
B2: zebrafish DraxinA, AVEXIS prey or bait protein (ligand)
chain: B1 chain
